Reference: patent publication US10611795B2, “Methods for viral inactivation using eco-friendly detergents” (priority 2013, dated 2020)

Tests used:
[1] = system: MAb3; assay: iCIEF charge heterogeneity after detergent treatment; conditions: three hours ambient
[2] = system: DNA; assay: DNA quantitation (TaqMan PCR assay); conditions: three hours ambient
[3] = system: MAb3; assay: Size exclusion chromatography (SEC) of product after detergent treatment; conditions: three hours ambient
[4] = system: MAb1; assay: iCIEF charge heterogeneity after detergent treatment; conditions: MAb1 HCCF, detergent mixing study
[5] = system: MAb1; assay: Size exclusion chromatography (SEC) of product after detergent treatment; conditions: MAb1 HCCF, detergent mixing study

Substance | iCIEF-acidic (%) ([1]; MAb3 HCCF + Detergent) | iCIEF-basic (%) ([1]; MAb3 HCCF + Detergent) | iCIEF-main (%) ([1]; MAb3 HCCF + Detergent) | iCIEF-acidic (%) ([1]; MAb3 N. ProA pool + detergent) | iCIEF-basic (%) ([1]; MAb3 N. ProA pool + detergent) | iCIEF-main (%) ([1]; MAb3 N. ProA pool + detergent) | DNA (ppm), HCCF + Detergent ([2]; MAb3 HCCF) [ppm] | DNA (ppm), Adj. ProA pool + Detergent ([2]; MAb3 adjusted protein A pool) [ppm] | SEC-HMWS (%) ([3]; MAb3 HCCF + Detergent) | SEC-LMWS (%) ([3]; MAb3 HCCF + Detergent) | SEC-main (%) ([3]; MAb3 HCCF + Detergent) | SEC-HMWS (%) ([3]; MAb3 N. ProA pool + detergent) | SEC-LMWS (%) ([3]; MAb3 N. ProA pool + detergent) | SEC-main (%) ([3]; MAb3 N. ProA pool + detergent) | iCIEF % Acidic [4] [%] | iCIEF % Basic [4] [%] | iCIEF % Main [4] [%] | SEC % HMWS [5] [%] | SEC % LMWS [5] [%]
Triton X-100 [reference compound] | 59.8 | 2.65 | 37.6 | 51.1 | 3.51 | 45.4 | 261 | 2.1 | 2.2 | 0.1 | 97.7 | 2.3 | 0.1 | 97.6 | – | – | – | – | –
Polysorbate 20 | – | – | – | – | – | – | – | – | – | – | – | – | – | – | 35.0 | 2.5 | 62.5 | 7.3 | 0.1
